PubChem BioAssay AID1259308, NCATS – 2017

- Purpose: 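Genes whose loss raises luciferase production in HEK293 cells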 (primary screen)
- System: human HEK293 embryonic kidney cells stably expressing firefly luciferase (HEK-CMV-Luc2-Hygro)
- Reagent: single siRNA against human genes, 0.8 pmol siRNA per well
- Time to read-out: 72 h
- Measured: 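Luciferase light (ONE-Glo) measured on one replicate plate set and viability (CellTiter-Glo) on the other, scaled to a negative control siRNA, with robust z-scores and luciferase per cell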
- Direction: total luciferase, z-score: higher = more reporter protein produced
- Call rule: 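An siRNA counts as active if its total luciferase robust z-score exceeds 3; genes with two or more such siRNAs out of three were retested with fresh siRNAs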
- Calls: active = raised luciferase; inactive = no rise
Here is a random part of about 59,000 reagents. Over the whole deposit, about 1,510 (2.6%) are marked active. 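Calls use total luciferase alone and ignore viability, so some active siRNAs may act by altering cell number.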 Reagents against one gene are numbered here. Further read-outs or replicates are left out here.

total luciferase, z-score, by gene symbol and reagent
F11: #1 0.217 inactive; #2 -0.838 inactive; #3 -0.0353 inactive
HHLA2: #1 0.13 inactive; #2 -0.487 inactive; #3 1.21 inactive
ADGRG5: #1 -0.985 inactive; #2 0.94 inactive; #3 0.174 inactive
TNFRSF12A: #1 1.03 inactive; #2 -0.349 inactive; #3 -1.4 inactive
USP19: #1 0.325 inactive; #2 0.623 inactive; #3 0.779 inactive
CD83: #1 0.475 inactive; #2 1.04 inactive; #3 -1.78 inactive
DTNA: #1 1.76 inactive; #2 -1.05 inactive; #3 -0.288 inactive
PCBP1: #1 -0.237 inactive; #2 0.153 inactive; #3 -0.503 inactive

Targets above whose gene name begins with U or u:
total luciferase, z-score, by gene symbol and reagent
USP19: #1 0.325 inactive; #2 0.623 inactive; #3 0.779 inactive
